## Cell number after 72 h of treatment

From a melanoma drug combination screen (doi:10.1371/journal.pone.0140310); values rounded.

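The test systems are human melanoma cell lines, treated with two drugs together for 72 h and then stained and imaged. Each value is the count of nuclei relative to DMSO-treated wells, in %, so that 100 equals the control. Every drug was used at one fixed concentration, the lower of two screened (a fifth of the higher). The file gives one value for each pair and line, without errors, so small differences may be noise.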 Only some of the drugs and lines screened are listed, without regard to their results. A dash means that no value is listed here.

Drug key:
PF-562271: CN(c1ncccc1CNc1nc(Nc2ccc3c(c2)CC(=O)N3)ncc1C(F)(F)F)S(C)(=O)=O at 0.08 µM
SU6656: CN(C)S(=O)(=O)c1ccc2c(c1)/C(=C/c1cc3c([nH]1)CCCC3)C(=O)N2 at 0.4 µM
bortezomib: CC(C)C[C@H](NC(=O)[C@H](Cc1ccccc1)NC(=O)c1cnccn1)B(O)O at 0.001 µM
crizotinib: C[C@@H](Oc1cc(-c2cnn(C3CCNCC3)c2)cnc1N)c1c(Cl)ccc(F)c1Cl at 0.2 µM
cisplatin: N.N.[Cl][Pt][Cl] at 1.6 µM
PF-04217903: OCCn1cc(-c2cnc3nnn(Cc4ccc5ncccc5c4)c3n2)cn1 at 1 µM
bexarotene: C=C(c1ccc(C(=O)O)cc1)c1cc2c(cc1C)C(C)(C)CCC2(C)C at 2 µM
lenalidomide: Nc1cccc2c1CN(C1CCC(=O)NC1=O)C2=O (centres undefined) at 1 µM
LFM-A13: C/C(O)=C(\C#N)C(=O)Nc1cc(Br)ccc1Br at 2 µM

| Drugs | C32 | COLO 792 | MEL-HO | IST-MEL1 | LOX IMVI | IPC-298 | LB2518-MEL | A375 |
|---|---|---|---|---|---|---|---|---|
| cisplatin + PF-562271 | 82.1 | 88.5 | 85.6 | 97.7 | 121 | 95.0 | 107 | 95.2 |
| cisplatin + bortezomib | 88.9 | - | - | - | - | - | - | - |
| bexarotene + PF-562271 | 77.7 | 77.1 | 99.0 | 96.1 | 106 | 90.3 | 89.3 | 79.4 |
| SU6656 + cisplatin | 94.1 | - | - | - | - | - | - | 102 |
| SU6656 + LFM-A13 | 89.2 | 85.3 | 108 | 98.7 | 122 | 95.0 | 99.3 | 94.7 |
| LFM-A13 + PF-04217903 | 83.4 | 92.1 | 106 | 97.7 | 78.8 | 107 | 102 | 111 |
| PF-04217903 + cisplatin | 122 | - | - | - | - | - | - | 95.2 |
| crizotinib + SU6656 | 87.3 | - | - | - | - | - | - | 131 |
| LFM-A13 + crizotinib | 99.9 | - | - | - | - | - | - | - |
| lenalidomide + SU6656 | 94.0 | - | - | - | - | - | - | 94.0 |
| PF-562271 + bortezomib | 81.4 | 80.5 | 65.8 | 96.2 | 57.5 | 79.2 | 50.6 | 72.3 |
| cisplatin + LFM-A13 | 101 | - | - | - | - | - | - | - |
| lenalidomide + bortezomib | 102 | 92.2 | 86.7 | 95.3 | 81.7 | 67.8 | 46.1 | 107 |
| PF-562271 + crizotinib | 82.4 | 87.2 | 99.1 | 103 | 99.7 | 101 | 105 | 103 |
| bexarotene + SU6656 | 90.6 | - | - | - | - | - | - | 121 |
| lenalidomide + PF-04217903 | 103 | - | - | - | - | - | - | 102 |
| bortezomib + crizotinib | 82.5 | 92.4 | 85.8 | 79.7 | 76.5 | 67.5 | 26.5 | 102 |
| crizotinib + PF-04217903 | 86.0 | 100 | 106 | 98.0 | 89.7 | 94.8 | 86.7 | 95.9 |
| bortezomib + bexarotene | 84.7 | 93.8 | 95.6 | 92.5 | 59.8 | 77.6 | 32.3 | 104 |
| PF-04217903 + bexarotene | 99.8 | - | - | - | - | - | - | 86.4 |
| bexarotene + LFM-A13 | 95.1 | - | - | - | - | - | - | - |
| lenalidomide + bexarotene | 93.9 | 85.2 | 86.7 | 96.7 | 96.9 | 97.7 | 108 | 106 |
| lenalidomide + LFM-A13 | 117 | 90.4 | 111 | 95.5 | 76.7 | 100 | 85.4 | 94.5 |
| PF-562271 + SU6656 | 77.9 | - | - | - | - | - | - | 90.2 |
| PF-562271 + PF-04217903 | 90.7 | - | - | - | - | - | - | 67.7 |

The first 3 entries again:

| Drugs | C32 | COLO 792 | MEL-HO | IST-MEL1 | LOX IMVI | IPC-298 | LB2518-MEL | A375 |
|---|---|---|---|---|---|---|---|---|
| cisplatin + PF-562271 | 82.1 | 88.5 | 85.6 | 97.7 | 121 | 95.0 | 107 | 95.2 |
| cisplatin + bortezomib | 88.9 | - | - | - | - | - | - | - |
| bexarotene + PF-562271 | 77.7 | 77.1 | 99.0 | 96.1 | 106 | 90.3 | 89.3 | 79.4 |